Test results: publication PMC4374696, “Protease Activity of PprI Facilitates DNA Damage Response: Mn(2+)-Dependence and Substrate Sequence-Specificity of the Proteolytic Reaction”

Target: T1, DdrO (Deinococcus radiodurans R1 (ATCC 13939)) (UniProt Q9RRB8)
T1 sequence (looked up, limits assumed): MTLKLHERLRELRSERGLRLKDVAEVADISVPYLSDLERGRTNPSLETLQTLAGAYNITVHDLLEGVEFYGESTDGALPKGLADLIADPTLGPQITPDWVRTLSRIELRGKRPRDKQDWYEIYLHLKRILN
Assay: EMSA
Details: 10 uM DdrO with PprI protease 0.06-8 uM, complex gradually weakened; 150 mM NaCl, 20 mM Tris-HCl pH 8.0, 5 mM MgCl2, 1.6 uM DNA, 0-16 uM protein, 30 C; 12% TB-PAGE; recombinant protein; protein details: 6xHis-MBP tag removed by TEV; probe letters rebuilt from the primers and the genome

| Sequence | binding result |
| --- | --- |
| AGAAACACCAGCATGATCGCAAGGTAGGCTGCTCCGCGCACTGGGGCGTCCGCCGAAAGGTGCAGCGCGCCTCACCTTCCCTTGACCCATCCCATTCAGGGCCGCACCCTGTAGACACTGGTTACGTCCTCCCATATACTCCGGTGAGGTTGTTATGCTGCTAGCAGAAATCATCAGTGTGGGCACG (double strand) [PrecA (recA promoter, RDRM)] | binds more weakly |
| TACTGCGGTCTGACGATGACCTCGTCCTTATCTGCGGGAGCCTCTATCTGCTCGGCGAACTGCGTCCTTTGCTGCTGGGCGAGCAGTCGGAAGGCCACGAACGCTGGCAATAGCCACAGCAGCGGCCAATTTCTGGTTTCGAAACAGGAATAAGGCAAGTTGACTGCCCTCATTCTGTATTGACCGTAGCAAGGAGCGGTGTTACACT (double strand) [PddrO] | binds more weakly |

For at least one entry, the source does not settle the construct or the ends of the probe. A weaker result is weaker than the reference pair of the same experiment. Tags and fusion partners may be left off the protein sequences shown.
